Laboratory results published in the supplement of paper PMC8728848.
Some of the results follow.

Columns and labels:
Experiment in all cases: glycan array binding signal (z-score within array); higher = stronger binding
Settings in all cases: glycan notation: IUPAC condensed, linker removed
[1] = target: Gal(b1-3)Gal(b1-4)GlcNAc(b1-2)Man(a1-3)[Gal(b1-3)Gal(b1-4)GlcNAc(b1-2)Man(a1-6)]Man(b1-4)GlcNAc(b1-4)GlcNAc
Procedure, shortened: (§1)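 Negative Z-scores can be read as non-binding. The Z-score is calculated within each array and then averaged across arrays of one protein sequence at different concentrations or buffers and across linkers. Arrays, 3228 in all, were curated from the Consortium for Functional Glycomics database and kept only where the protein sequence was available.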

[2] = target: Gal(b1-3)GalNAc
Procedure, shortened: as §1

[3] = target: Gal(b1-3)GalNAc(a1-3)[Fuc(a1-2)]Gal(b1-4)Glc
Procedure, shortened: as §1

[4] = target: Gal(b1-3)GalNAc(a1-3)[Fuc(a1-2)]Gal(b1-4)GlcNAc
Procedure, shortened: as §1

[5] = target: Gal(b1-3)GalNAc(b1-3)Gal(a1-4)Gal(b1-4)Glc
Procedure, shortened: as §1

[6] = target: Gal(b1-3)GalNAc(b1-4)Gal(b1-4)Glc
Procedure, shortened: as §1

[7] = target: Gal(b1-3)GalNAc(b1-4)[Neu5Ac(a2-3)]Gal(b1-4)Glc
Procedure, shortened: as §1

[8] = target: Gal(b1-3)GlcNAc
Procedure, shortened: as §1

[9] = target: Gal(b1-3)GlcNAc(a1-6)Gal(b1-4)GlcNAc
Procedure, shortened: as §1

[10] = target: Gal(b1-3)GlcNAc(b1-2)Man(a1-3)[Gal(b1-3)GlcNAc(b1-2)Man(a1-6)]Man(b1-4)GlcNAc(b1-4)GlcNAc
Procedure, shortened: as §1

[11] = target: Gal(b1-3)GlcNAc(b1-2)Man(a1-3)[Gal(b1-3)GlcNAc(b1-2)Man(a1-6)]Man(b1-4)GlcNAc(b1-4)[Fuc(a1-6)]GlcNAc
Procedure, shortened: as §1

[12] = target: Gal(b1-3)GlcNAc(b1-2)[Gal(b1-3)GlcNAc(b1-6)]Man(a1-6)[Gal(b1-3)GlcNAc(b1-2)Man(a1-3)]Man(b1-4)GlcNAc(b1-4)GlcNAc
Procedure, shortened: as §1

[13] = target: Gal(b1-3)GlcNAc(b1-3)Gal(b1-3)GlcNAc
Procedure, shortened: as §1

[14] = target: Gal(b1-3)GlcNAc(b1-3)Gal(b1-4)Glc
Procedure, shortened: as §1

[15] = target: Gal(b1-3)GlcNAc(b1-3)Gal(b1-4)GlcNAc
Procedure, shortened: as §1

[16] = target: Gal(b1-3)GlcNAc(b1-3)Gal(b1-4)GlcNAc(b1-6)[Gal(b1-3)GlcNAc(b1-3)]Gal(b1-4)Glc
Procedure, shortened: as §1

[17] = target: Gal(b1-3)GlcNAc(b1-3)Gal(b1-4)[Fuc(a1-3)]GlcNAc(b1-6)[Gal(b1-3)GlcNAc(b1-3)]Gal(b1-4)Glc
Procedure, shortened: as §1

[18] = target: Gal(b1-3)GlcNAc(b1-3)GalNAc
Procedure, shortened: as §1

[19] = target: Gal(b1-3)GlcNAc(b1-6)Gal(b1-4)GlcNAc
Procedure, shortened: as §1

[20] = target: Gal(b1-3)[Fuc(a1-4)]GlcNAc
Procedure, shortened: as §1

[21] = target: Gal(b1-3)[Fuc(a1-4)]GlcNAc(b1-2)Man(a1-3)[Gal(b1-3)[Fuc(a1-4)]GlcNAc(b1-2)Man(a1-6)]Man(b1-4)GlcNAc(b1-4)GlcNAc
Procedure, shortened: as §1

[22] = target: Gal(b1-3)[Fuc(a1-4)]GlcNAc(b1-2)Man(a1-3)[Gal(b1-3)[Fuc(a1-4)]GlcNAc(b1-2)Man(a1-6)]Man(b1-4)GlcNAc(b1-4)[Fuc(a1-6)]GlcNAc
Procedure, shortened: as §1

[23] = target: Gal(b1-3)[Fuc(a1-4)]GlcNAc(b1-3)Gal(b1-3)[Fuc(a1-4)]GlcNAc
Procedure, shortened: as §1

[24] = target: Gal(b1-3)[Fuc(a1-4)]GlcNAc(b1-3)Gal(b1-4)GlcNAc
Procedure, shortened: as §1

[25] = target: Gal(b1-3)[Fuc(a1-4)]GlcNAc(b1-3)Gal(b1-4)[Fuc(a1-3)]GlcNAc
Procedure, shortened: as §1

[26] = target: Gal(b1-3)[GlcNAc(b1-6)]GalNAc
Procedure, shortened: as §1

[27] = target: Gal(b1-3)[Neu5Ac(a2-6)]GalNAc
Procedure, shortened: as §1

[28] = target: Gal(b1-3)[Neu5Ac(a2-6)]GlcNAc(b1-6)Gal(b1-4)Glc
Procedure, shortened: as §1

[29] = target: Gal(b1-3)[Neu5Ac(b2-6)]GalNAc
Procedure, shortened: as §1

[30] = target: Gal(b1-4)Gal
Procedure, shortened: as §1

[31] = target: Gal(b1-4)GalNAc(a1-3)[Fuc(a1-2)]Gal(b1-4)GlcNAc
Procedure, shortened: as §1

[32] = target: Gal(b1-4)GalNAc(b1-3)[Fuc(a1-2)]Gal(b1-4)GlcNAc
Procedure, shortened: as §1

[33] = target: Gal(b1-4)Glc
Procedure, shortened: as §1

[34] = target: Gal(b1-4)Glc6S
Procedure, shortened: as §1

[35] = target: Gal(b1-4)GlcNAc
Procedure, shortened: as §1

[36] = target: Gal(b1-4)GlcNAc(a1-6)Gal(b1-4)GlcNAc
Procedure, shortened: as §1

[37] = target: Gal(b1-4)GlcNAc(b1-2)Man
Procedure, shortened: as §1

[38] = target: Gal(b1-4)GlcNAc(b1-2)Man(a1-3)Man(b1-4)GlcNAc(b1-4)GlcNAc
Procedure, shortened: as §1

B1: Intelectin 1 (Homo sapiens), Q8WWA0 (protein)
chain: MNQLSFLLFLIATTRGWSTDEANTYFKEWTCSSSPSLPRSCKEIKDECPSAFDGLYFLRTENGVIYQTFCDMTSGGGGWTLVASVHENDMRGKCTVGDRWSSQQGSKAVYPEGDGNWANYNTFGSAEAATSDDYKNPGYYDIQAKDLGIWHVPNKSPMQHWRNSSLLRYRTDTGFLQTLGHNLFGIYQKYPVKYGEGKCWTDNGPVIPVVYDFGDAQKTASYYSPYGQREFTAGFVQFRVFNNERAANALCAGMRVTGCNTEHHCIGGGGYFPEASPQQCGDFSGFDWSGYGTHVGYSSSREITEAAVLLFYR
glycan array binding signal (z-score) [1]: -0.124
glycan array binding signal (z-score) [2]: -0.143
glycan array binding signal (z-score) [3]: 0.06
glycan array binding signal (z-score) [4]: -0.367
glycan array binding signal (z-score) [5]: 0.294
glycan array binding signal (z-score) [6]: -0.538
glycan array binding signal (z-score) [7]: -0.763
glycan array binding signal (z-score) [8]: -0.29
glycan array binding signal (z-score) [9]: -0.723
glycan array binding signal (z-score) [10]: -0.346
glycan array binding signal (z-score) [11]: 0.328
glycan array binding signal (z-score) [12]: 0.07
glycan array binding signal (z-score) [13]: 0.039
glycan array binding signal (z-score) [14]: 0.013
glycan array binding signal (z-score) [15]: 0.233
glycan array binding signal (z-score) [16]: 0.581
glycan array binding signal (z-score) [17]: -0.452
glycan array binding signal (z-score) [18]: 0.155
glycan array binding signal (z-score) [19]: 0.042
glycan array binding signal (z-score) [20]: 0.568
glycan array binding signal (z-score) [21]: -0.405
glycan array binding signal (z-score) [22]: 0.647
glycan array binding signal (z-score) [23]: 0.595
glycan array binding signal (z-score) [24]: 1.33
glycan array binding signal (z-score) [25]: 0.076
glycan array binding signal (z-score) [26]: 0.319
glycan array binding signal (z-score) [27]: 0.121
glycan array binding signal (z-score) [28]: 0.303
glycan array binding signal (z-score) [29]: 2.22
glycan array binding signal (z-score) [30]: 0.906
glycan array binding signal (z-score) [31]: 0.068
glycan array binding signal (z-score) [32]: -0.176
glycan array binding signal (z-score) [33]: -0.284
glycan array binding signal (z-score) [34]: -0.101
glycan array binding signal (z-score) [35]: 0.029
glycan array binding signal (z-score) [36]: 0.254
glycan array binding signal (z-score) [37]: 0.889
glycan array binding signal (z-score) [38]: 1.08
